# Paper PMC2621155
# No constants are given. Whether binding was seen depends on the method and setting. Binding seen in cells or lysates may run through a third protein. For some assays here: Binding can be weak; no strength is given. For some assays here: Where a sequence is shown, tags or fusion partners need not be part of it.
# T1: Myc-rapsyn (mouse) (UniProt P12672)
# T1 sequence: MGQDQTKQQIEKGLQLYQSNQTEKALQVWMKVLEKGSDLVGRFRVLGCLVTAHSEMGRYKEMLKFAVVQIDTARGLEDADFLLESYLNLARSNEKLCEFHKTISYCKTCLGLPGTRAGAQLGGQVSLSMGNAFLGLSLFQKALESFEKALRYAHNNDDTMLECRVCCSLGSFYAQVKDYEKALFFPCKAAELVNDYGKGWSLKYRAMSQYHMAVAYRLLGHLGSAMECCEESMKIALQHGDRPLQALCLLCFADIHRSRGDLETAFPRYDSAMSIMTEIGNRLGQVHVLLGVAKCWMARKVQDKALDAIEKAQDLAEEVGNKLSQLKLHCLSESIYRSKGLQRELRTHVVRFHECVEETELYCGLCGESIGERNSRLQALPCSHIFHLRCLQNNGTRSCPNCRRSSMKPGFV
# T2: rapsyn, endogenous in C2C12 myotubes (mouse (endogenous in C2C12)) (UniProt P12672)
# T2 sequence: T1 sequence
# B1: HA-rapsyn (protein, UniProt P12672 1-412)
# chain: T1 sequence
# B2: [^35S]-labeled rapsyn (protein, UniProt P12672 1-412)
# chain: T1 sequence
# modifications: [^35S]-labeled methionine
# Key:
# [1] = target: T1, Myc-rapsyn (mouse); assay: co-IP; HEK 293 cells cotransfected with GFP-α-actinin and Myc-rapsyn, Myc-calsarcin or Myc empty vector; anti-Myc antibody and protein G agarose beads; lysis buffer 50 mM Tris-HCl pH 7.5, 150 mM NaCl, 1% NP40, .5% sodium deoxycholate
# [2] = target: T2, rapsyn, endogenous in C2C12 myotubes (mouse (endogenous in C2C12)); assay: co-IP; C2C12 myotube lysates, anti-rapsyn antibody and protein A agarose beads, blot for α-actinin; myotubes untreated, with agrin 10 ng/ml 18 hr, with agrin and STI-571, or with agrin and then 10 μM carbachol for 4 hr
# [3] = target: GST-α-actinin 653–824; assay: pull-down; α-actinin 2 GST-fusion proteins immobilized on glutathione sepharose 4B beads, incubated with lysates of HEK293 cells transfected with HA-rapsyn; immunoblot with anti-HA; only the target purified
# [4] = target: GST-α-actinin 653–824; assay: pull-down; immobilized GST-α-actinin constructs incubated with in vitro translated [^35S]-labeled rapsyn; 25 mM HEPES, 1 mM DTT, 0.5% Triton X-100, 150 mM NaCl, pH 7.5, 2 hr at 4°C; autoradiogram; only the target purified
# [5] = target: GST-α-actinin 751–824; assay: as above
molecule,measurement,setting,value
GFP-α-actinin,binding,[1],binds weakly
"α-actinin, endogenous in myotubes (mouse (endogenous in C2C12))",binding,[2],binds weakly
B1,binding,[3],binds
B2,binding,[4],binds
same,binding,[5],no binding
